# According to the supplement of paper PMC12823440, “Inhibitors supercharge kinase turnover through native proteolytic circuits” (Nature, 2025):
# By UniProt entry, the sequences of proteins in these tests, tags left out.
# UniProt P00519, whole entry: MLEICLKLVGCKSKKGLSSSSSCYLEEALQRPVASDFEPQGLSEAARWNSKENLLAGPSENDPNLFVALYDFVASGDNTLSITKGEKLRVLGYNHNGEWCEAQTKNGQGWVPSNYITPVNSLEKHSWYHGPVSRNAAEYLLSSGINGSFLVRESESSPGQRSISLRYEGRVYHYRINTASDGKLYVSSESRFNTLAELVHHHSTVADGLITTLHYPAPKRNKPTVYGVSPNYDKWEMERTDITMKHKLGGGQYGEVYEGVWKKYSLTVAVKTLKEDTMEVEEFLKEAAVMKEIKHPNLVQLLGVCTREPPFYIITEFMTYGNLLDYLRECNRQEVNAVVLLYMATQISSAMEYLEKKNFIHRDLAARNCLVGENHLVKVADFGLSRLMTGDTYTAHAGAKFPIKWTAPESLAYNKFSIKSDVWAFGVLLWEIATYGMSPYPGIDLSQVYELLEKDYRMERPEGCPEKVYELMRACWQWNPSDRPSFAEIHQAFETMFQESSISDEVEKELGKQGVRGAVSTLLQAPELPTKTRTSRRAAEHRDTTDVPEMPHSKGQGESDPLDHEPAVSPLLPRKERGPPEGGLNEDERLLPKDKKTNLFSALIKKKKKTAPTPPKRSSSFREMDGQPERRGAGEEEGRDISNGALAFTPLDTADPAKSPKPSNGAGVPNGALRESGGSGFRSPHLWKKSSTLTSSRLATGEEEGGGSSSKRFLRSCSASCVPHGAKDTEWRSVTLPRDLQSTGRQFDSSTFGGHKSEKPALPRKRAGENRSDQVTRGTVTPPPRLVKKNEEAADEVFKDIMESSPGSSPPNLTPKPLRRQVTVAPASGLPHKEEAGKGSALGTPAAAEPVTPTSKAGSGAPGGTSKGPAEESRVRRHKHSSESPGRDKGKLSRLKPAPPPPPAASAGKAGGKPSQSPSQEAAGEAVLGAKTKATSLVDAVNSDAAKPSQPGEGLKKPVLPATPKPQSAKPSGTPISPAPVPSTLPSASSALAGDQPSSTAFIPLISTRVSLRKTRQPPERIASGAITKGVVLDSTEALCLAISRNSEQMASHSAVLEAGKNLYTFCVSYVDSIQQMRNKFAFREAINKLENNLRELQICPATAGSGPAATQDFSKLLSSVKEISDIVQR
# Structures can show the parent of a compound that is named as a salt. The list shows a part of the results. Hit calls seldom repeat between salt and free forms of one compound.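 Kinases, fused to nanoluciferase, were expressed in K562 cells; luminescence was measured every 4 h from 2 to 18 h as percent of control (DMSO = 100%, positive control = 0%). A time point is decreased if signal falls significantly (2 sigma). Hits were called by the authors by a rule that is not shown; the count of time points alone does not decide it.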
# Biological target: ABL1 (UniProt P00519)
# Experiment: kinase-Nluc reporter destabilization hit call (1 = scored as downregulated) (binary); higher = compound decreases kinase abundance
# Settings: K562; 2-18 h
row,SMILES,kinase-Nluc reporter destabilization hit call
1,CCCCNc1nc(N)c2[nH]c(=O)n(Cc3ccc(C)nc3)c2n1 (10 µM),inactive: 0
2,N#CC(C#N)=Cc1ccc([N+](=O)[O-])c(O)c1 (10 µM),inactive: 0
3,O=c1[nH]c2ccccc2n1C1CCN(Cc2ccc(-c3[nH]c4cc5ncnc5cc4nc3-c3ccccc3)cc2)CC1 [AKT inhibitor VIII] (2.5 µM),inactive: 0
4,CC(=O)Oc1ccc(/C=C/c2cc(OC(C)=O)cc(OC(C)=O)c2)cc1 [Triacetylresveratrol] (10 µM),inactive: 0
5,O=C1c2ccccc2C(=O)c2c1cccc2-c1cnn(C2CCNCC2)c1 [PDK4-IN-1 (hydrochloride)] (10 µM),inactive: 0
6,CC1C(=O)OC2C(O)C34C5OC(=O)C3(OC3OC(=O)C(O)C34C(C(C)(C)C)C5O)C12O (stereo unspecified) [Ginkgolide C] (10 µM),inactive: 0
7,O=Cc1cn(Cc2ccc(Cl)cc2)c2ccccc12 [Oncrasin-1] (10 µM),inactive: 0
8,N#CC(C#N)=NNc1cccc(Cl)c1 (2.5 µM),inactive: 0
9,CC(C)=CC[C@@H](OC(=O)CC(C)(C)O)C1=CC(=O)c2c(O)ccc(O)c2C1=O [β-Hydroxyisovalerylshikonin] (2.5 µM),inactive: 0
10,O=c1ccc2cc(O[C@@H]3O[C@H](CO)[C@@H](O)[C@H](O)[C@H]3O)c(O)cc2o1 [Esculin] (10 µM),inactive: 0
11,C[C@H]1CC[C@]2(NC1)O[C@H]1C[C@H]3[C@@H]4CC[C@H]5C[C@@H](O)CC[C@]5(C)[C@H]4CC[C@]3(C)[C@H]1[C@@H]2C [Tomatidine] (2 µM),inactive: 0

# Records 3 to 4 of the list above:
row,SMILES,kinase-Nluc reporter destabilization hit call
3,O=c1[nH]c2ccccc2n1C1CCN(Cc2ccc(-c3[nH]c4cc5ncnc5cc4nc3-c3ccccc3)cc2)CC1 [AKT inhibitor VIII] (2.5 µM),inactive: 0
4,CC(=O)Oc1ccc(/C=C/c2cc(OC(C)=O)cc(OC(C)=O)c2)cc1 [Triacetylresveratrol] (10 µM),inactive: 0
